Results on four sequences are retold here after PMC8272040.

Negatives hold for the conditions tested. At least one verdict was read from the data and is not stated in words by the source. For at least one entry, the source does not settle the construct or the ends of the probe.

The data set has as its system human alpha-thrombin (Homo sapiens). Put plainly: sandwich proximity extension/transcription, AuNP colorimetric and molecular beacon read-out. Particulars: 1x T7 RNA polymerase buffer (40 mM Tris-HCl pH 8.0, 8 mM MgCl2, 2 mM spermidine), 5 mM DTT, 15% DMSO, NTPs/dNTPs, 0.2 uM each probe, 42 C, commercial protein, single-stranded DNA.

With “TTTTTTTTTTAATTCTAATACGACTCACTATAGGGAGAGGCAATAGCTCTGGCAATTTCTTAGGCTAG [NA (Probe-A without aptamer)]”, the binding result (with NB, 100 nM thrombin, no signal) is “no binding”.
Consider “TTTTTTTTTTCTTTTGCCGGTTGTTGACGATTCGTAGTTGATGATCGGGTACTAGCC [NB (Probe-B without aptamer)]”, for which the binding result (with NA, 100 nM thrombin, no signal) is reported as “no binding”.
With “CGCCTAGGTTGGGTAGGGTGGTGGCGTTTTTTTTTTAATTCTAATACGACTCACTATAGGGAGAGGCAATAGCTCTGGCAATTTCTTAGGCTAG [Probe-A (NU172 aptamer + T7 promoter)]”, the binding result (with Probe-B, 8 mM Mg2+, assay LOD 4 nM (not a Kd)) is listed as “binds”.
Regarding “AGTCCGTGGTAGGGCAGGTTGGGGTGACTTTTTTTTTTTCTTTTGCCGGTTGTTGACGATTCGTAGTTGATGATCGGGTACTAGCC [Probe-B (HD22 aptamer)]”, the binding result (with Probe-A, 8 mM Mg2+, assay LOD 4 nM (not a Kd)) is on record as “binds”.
